Experiment [1] concerns the target Nup98 (endogenous) (human (endogenous in HEK 293 and HeLa)) (UniProt P52948). As to the kind of experiment: SEC.
For experiment [2] the target is unchanged. As to the kind of experiment: sucrose gradient sedimentation.

Sequences of proteins named here, by UniProt entry; tags and fusion partners are left off. Residues count along the entry.
UniProt P52948, residues 1-880: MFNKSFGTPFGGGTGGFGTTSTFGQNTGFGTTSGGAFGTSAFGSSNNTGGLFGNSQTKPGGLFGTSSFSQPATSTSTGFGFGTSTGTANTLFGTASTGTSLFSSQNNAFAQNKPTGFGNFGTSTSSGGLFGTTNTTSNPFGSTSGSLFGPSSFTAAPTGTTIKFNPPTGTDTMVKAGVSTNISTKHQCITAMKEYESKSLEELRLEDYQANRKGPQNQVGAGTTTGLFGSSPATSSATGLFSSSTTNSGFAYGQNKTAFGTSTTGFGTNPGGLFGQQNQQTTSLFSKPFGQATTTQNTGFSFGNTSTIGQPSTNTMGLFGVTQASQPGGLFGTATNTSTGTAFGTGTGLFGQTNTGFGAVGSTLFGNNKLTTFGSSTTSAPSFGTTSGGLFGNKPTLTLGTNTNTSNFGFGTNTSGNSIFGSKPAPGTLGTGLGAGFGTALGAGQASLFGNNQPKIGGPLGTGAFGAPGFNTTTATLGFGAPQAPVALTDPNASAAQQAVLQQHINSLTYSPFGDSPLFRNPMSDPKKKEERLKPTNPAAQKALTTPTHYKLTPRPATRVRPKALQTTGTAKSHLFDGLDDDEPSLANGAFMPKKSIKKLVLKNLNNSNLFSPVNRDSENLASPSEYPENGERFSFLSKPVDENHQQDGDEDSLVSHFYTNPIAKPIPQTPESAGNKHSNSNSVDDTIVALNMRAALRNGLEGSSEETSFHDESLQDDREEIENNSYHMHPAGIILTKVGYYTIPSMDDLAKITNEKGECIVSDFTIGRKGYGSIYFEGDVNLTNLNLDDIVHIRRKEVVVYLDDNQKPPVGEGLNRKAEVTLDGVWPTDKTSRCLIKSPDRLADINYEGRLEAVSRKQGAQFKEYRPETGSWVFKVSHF

Results are given in words; binding and its absence hold for the method and conditions named. Some entries that bind do so weakly or less than the wild type.

B1: Rae1 (endogenous) (protein, UniProt P78406 1-368)
chain: MSLFGTTSGFGTSGTSMFGSATTDNHNPMKDIEVTSSPDDSIGCLSFSPPTLPGNFLIAGSWANDVRCWEVQDSGQTIPKAQQMHTGPVLDVCWSDDGSKVFTASCDKTAKMWDLSSNQAIQIAQHDAPVKTIHWIKAPNYSCVMTGSWDKTLKFWDTRSSNPMMVLQLPERCYCADVIYPMAVVATAERGLIVYQLENQPSEFRRIESPLKHQHRCVAIFKDKQNKPTGFALGSIEGRVAIHYINPPNPAKDNFTFKCHRSNGTNTSAPQDIYAVNGIAFHPVHGTLATVGSDGRFSFWDKDARTKLKTSEQLDQPISACCFNHNGNIFAYASSYDWSKGHEFYNPQKKNYIFLRNAAEELKPRNKK
B1: the binding entry in experiment [1] and in experiment [2] was “binds” in each case.

For the origin of these results see PMC3460625.
